In this assay the target is Flag-IPADP1 (IPA-derived protein 1) (human). The assay is described as follows: affinity purification with mass spectrometry.

Our source for the binding values is paper doi:10.1101/2025.09.04.674312.

These are yes or no findings as the source states them, for the method shown. In cells and extracts the contact can be indirect. Here binding means that the protein was enriched with, or labelled near, the bait; the list need not be complete.

B1: MSH4 (protein, UniProt O15457 1-936)
chain: MLRPEISSTSPSAPAVSPSSGETRSPQGPRYNFGLQETPQSRPSVQVVSASTCPGTSGAAGDRSSSSSSLPCPAPNSRPAQGSYFGNKRAYAENTVASNFTFGASSSSARDTNYPQTLKTPLSTGNPQRSGYKSWTPQVGYSASSSSAISAHSPSVIVAVVEGRGLARGEIGMASIDLKNPQIILSQFADNTTYAKVITKLKILSPLEIIMSNTACAVGNSTKLFTLITENFKNVNFTTIQRKYFNETKGLEYIEQLCIAEFSTVLMEVQSKYYCLAAVAALLKYVEFIQNSVYAPKSLKICFQGSEQTAMIDSSSAQNLELLINNQDYRNNHTLFGVLNYTKTPGGSRRLRSNILEPLVDIETINMRLDCVQELLQDEELFFGLQSVISRFLDTEQLLSVLVQIPKQDTVNAAESKITNLIYLKHTLELVDPLKIAMKNCNTPLLRAYYGSLEDKRFGIILEKIKTVINDDARYMKGCLNMRTQKCYAVRSNINEFLDIARRTYTEIVDDIAGMISQLGEKYSLPLRTSFSSARGFFIQMTTDCIALPSDQLPSEFIKISKVKNSYSFTSADLIKMNERCQESLREIYHMTYMIVCKLLSEIYEHIHCLYKLSDTVSMLDMLLSFAHACTLSDYVRPEFTDTLAIKQGWHPILEKISAEKPIANNTYVTEGSNFLIITGPNMSGKSTYLKQIALCQIMAQIGSYVPAEYSSFRIAKQIFTRISTDDDIETNSSTFMKEMKEIAYILHNANDKSLILIDELGRGTNTEEGIGICYAVCEYLLSLKAFTLFATHFLELCHIDALYPNVENMHFEVQHVKNTSRNKEAILYTYKLSKGLTEEKNYGLKAAEVSSLPPSIVLDAKEITTQITRQILQNQRSTPEMERQRAVYHLATRLVQTARNSQLDPDSLRIYLSNLKKKYKEDFPRTEQVPEKTEE
For B1, the binding result was “binds”.
